Results as given in article doi:10.1101/2023.03.05.531181.
No constants are given. Whether binding was seen depends on the method and setting. For part of these data: Binding can be weak; no strength is given. For part of these data: Tags and fused reporters may be left off the sequences shown. For part of these data: Binding seen in cells or lysates may run through a third protein.

Sequences of proteins named here, by UniProt entry; tags and fusion partners are left off. A change or cut given only in a name is not applied to a line headed by its entry.
UniProt P67775: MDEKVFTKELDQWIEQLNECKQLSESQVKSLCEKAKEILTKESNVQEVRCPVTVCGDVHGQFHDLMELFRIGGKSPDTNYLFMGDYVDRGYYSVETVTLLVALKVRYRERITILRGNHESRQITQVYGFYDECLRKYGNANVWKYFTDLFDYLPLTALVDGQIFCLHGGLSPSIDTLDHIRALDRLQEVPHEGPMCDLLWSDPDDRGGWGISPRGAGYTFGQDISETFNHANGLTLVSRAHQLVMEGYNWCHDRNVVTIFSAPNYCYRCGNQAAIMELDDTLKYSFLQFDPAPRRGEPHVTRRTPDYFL
UniProt P31749: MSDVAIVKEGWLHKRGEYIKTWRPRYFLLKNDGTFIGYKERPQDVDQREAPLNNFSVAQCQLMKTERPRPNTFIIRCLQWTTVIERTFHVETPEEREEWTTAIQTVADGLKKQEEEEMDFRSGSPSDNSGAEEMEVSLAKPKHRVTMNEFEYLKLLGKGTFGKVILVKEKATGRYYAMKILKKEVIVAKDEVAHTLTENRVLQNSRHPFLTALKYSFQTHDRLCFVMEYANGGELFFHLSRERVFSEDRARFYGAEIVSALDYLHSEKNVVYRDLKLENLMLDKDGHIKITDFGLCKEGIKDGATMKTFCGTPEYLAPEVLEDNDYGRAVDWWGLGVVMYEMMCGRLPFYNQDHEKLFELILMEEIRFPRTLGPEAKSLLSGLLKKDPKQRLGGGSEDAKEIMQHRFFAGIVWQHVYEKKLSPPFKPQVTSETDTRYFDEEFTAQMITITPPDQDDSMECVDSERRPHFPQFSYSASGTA

Columns and labels:
His-FBP1 = target: T1, His-FBP1 (UniProt P09467); assay: pull-down
T1 sequence: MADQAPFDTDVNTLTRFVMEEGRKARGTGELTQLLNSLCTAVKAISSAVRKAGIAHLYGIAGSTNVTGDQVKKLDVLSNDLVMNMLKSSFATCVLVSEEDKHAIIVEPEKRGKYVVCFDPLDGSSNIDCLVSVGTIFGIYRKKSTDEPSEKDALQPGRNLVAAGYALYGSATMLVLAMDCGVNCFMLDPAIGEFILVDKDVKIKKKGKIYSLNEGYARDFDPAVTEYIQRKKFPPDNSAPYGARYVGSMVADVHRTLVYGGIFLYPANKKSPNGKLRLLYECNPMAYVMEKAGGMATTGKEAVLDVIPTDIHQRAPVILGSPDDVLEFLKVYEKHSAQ

V5-FBP1^E98A (human) = target: T2, V5-FBP1^E98A (human) (UniProt P09467); assay: co-IP
T2 sequence: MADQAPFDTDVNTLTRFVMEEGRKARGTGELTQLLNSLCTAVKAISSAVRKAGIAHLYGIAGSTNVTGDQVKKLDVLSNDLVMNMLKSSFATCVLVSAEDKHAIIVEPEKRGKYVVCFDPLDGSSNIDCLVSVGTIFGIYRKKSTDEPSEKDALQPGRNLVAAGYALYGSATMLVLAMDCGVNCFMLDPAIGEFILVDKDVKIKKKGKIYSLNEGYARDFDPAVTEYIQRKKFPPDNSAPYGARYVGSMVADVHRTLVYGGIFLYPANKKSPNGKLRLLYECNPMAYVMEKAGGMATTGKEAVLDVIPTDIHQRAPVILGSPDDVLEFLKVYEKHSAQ

V5-FBP1 (human) = target: T3, V5-FBP1 (human) (UniProt P09467); assay: co-IP
T3 sequence: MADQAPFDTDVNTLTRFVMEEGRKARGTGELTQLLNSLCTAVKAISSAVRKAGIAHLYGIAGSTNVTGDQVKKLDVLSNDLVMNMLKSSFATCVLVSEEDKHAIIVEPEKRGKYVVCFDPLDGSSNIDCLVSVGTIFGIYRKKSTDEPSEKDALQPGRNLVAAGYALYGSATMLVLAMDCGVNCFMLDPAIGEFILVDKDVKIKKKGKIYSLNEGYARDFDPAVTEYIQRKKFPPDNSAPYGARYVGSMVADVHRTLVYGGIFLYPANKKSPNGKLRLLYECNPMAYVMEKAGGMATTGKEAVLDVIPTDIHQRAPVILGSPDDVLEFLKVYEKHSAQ

V5-FBP1^L329P (human) = target: T4, V5-FBP1^L329P (human) (UniProt P09467); assay: co-IP
T4 sequence: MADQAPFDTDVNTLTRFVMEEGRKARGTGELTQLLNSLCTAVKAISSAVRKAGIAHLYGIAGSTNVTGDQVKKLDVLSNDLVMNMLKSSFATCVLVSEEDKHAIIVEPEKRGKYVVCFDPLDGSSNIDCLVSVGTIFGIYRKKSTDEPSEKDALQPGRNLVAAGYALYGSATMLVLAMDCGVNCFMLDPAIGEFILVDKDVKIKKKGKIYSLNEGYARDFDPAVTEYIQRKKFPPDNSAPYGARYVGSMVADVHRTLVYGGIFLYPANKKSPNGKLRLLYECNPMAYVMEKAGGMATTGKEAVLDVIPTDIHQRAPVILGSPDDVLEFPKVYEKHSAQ

Flag-PP2A-C = Flag-PP2A-C (UniProt P67775); assay: co-IP
His-ALDOB = target: T5, His-ALDOB (UniProt P05062); assay: pull-down
T5 sequence: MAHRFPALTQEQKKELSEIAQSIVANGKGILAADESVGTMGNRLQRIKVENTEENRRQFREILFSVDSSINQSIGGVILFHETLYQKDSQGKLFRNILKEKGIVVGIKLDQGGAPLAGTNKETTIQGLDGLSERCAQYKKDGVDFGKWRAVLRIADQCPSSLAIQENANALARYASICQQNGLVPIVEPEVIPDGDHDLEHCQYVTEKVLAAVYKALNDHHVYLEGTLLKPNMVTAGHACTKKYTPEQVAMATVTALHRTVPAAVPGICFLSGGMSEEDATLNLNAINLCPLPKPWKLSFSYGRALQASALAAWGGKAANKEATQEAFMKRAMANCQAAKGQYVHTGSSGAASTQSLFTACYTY

[1] = target: AKT (mouse liver) (mouse (endogenous in liver)); assay: proximity ligation
[2] = target: AKT (mouse liver) (mouse (endogenous in liver)); assay: proximity ligation; remark: listed apart in the source
[3] = target: AKT (mouse liver) (mouse (endogenous in liver)); assay: co-IP
[4] = target: AKT (mouse liver) (mouse (endogenous in liver)); assay: co-IP; remark: listed apart in the source
[5] = target: AKT (mouse liver) (mouse (endogenous in liver)); assay: co-IP; remark: listed apart in the source
[6] = target: AKT (Huh7 cells) (human (endogenous in Huh7)); assay: co-IP
GST-PP2A-C = GST-PP2A-C (UniProt P67775); assay: pull-down

Molecule: GST-PP2A-C (from UniProt P67775) (enzyme)
- binding (His-FBP1): binds

Molecule: AKT (Huh7 cells) (human (endogenous in Huh7)) (enzyme)
- binding (V5-FBP1^E98A (human)): binds
- binding (V5-FBP1 (human)): binds
- binding (V5-FBP1^L329P (human)): no binding

Molecule: PP2A-C (from UniProt P67775) (enzyme)
- binding (V5-FBP1^E98A (human)): binds
- binding (V5-FBP1 (human)): binds

Molecule: AKT1 (from UniProt P31749 1-480) (enzyme)
- binding (Flag-PP2A-C): binds

Molecule: His-AKT (enzyme)
- binding (His-FBP1): binds weakly
- binding (His-ALDOB): binds

B1: FBP1 (mouse liver) (enzyme, UniProt Q9QXD6 1-338)
chain: MANHAPFETDISTLTRFVMEQGRKAQGTGELTQLLNSLCTAIKAISSAVRQAGIAQLYGIAGSTNVTGDQVKKLDILSNDLVINMLKSSYATCVLVSEENTNAIIIEPEKRGKYVVCFDPLDGSSNIDCLVSIGTIFGIYRKKSTDEPSEKDALQPGRDLVAAGYALYGSATMLVLAMDCGVNCFMLDPSIGEFIMVDRDVKMKKKGNIYSLNEGYAKDFDPAINEYLQRKKFPPDGSAPYGARYVGSMVADIHRTLVYGGIFLYPANKKSPSGKLRLLYECNPIAYVMEKAGGLATTGDKDILDIVPTEIHQKAPVVMGSSEDVQEFLEIYRKHKAK
- binding [1]: binds
- binding [2]: binds
- binding [3]: binds
- binding [4]: binds
- binding [5]: binds

B2: HA-FBP1 (enzyme, UniProt Q9QXD6 1-338)
chain: MANHAPFETDISTLTRFVMEQGRKAQGTGELTQLLNSLCTAIKAISSAVRQAGIAQLYGIAGSTNVTGDQVKKLDILSNDLVINMLKSSYATCVLVSEENTNAIIIEPEKRGKYVVCFDPLDGSSNIDCLVSIGTIFGIYRKKSTDEPSEKDALQPGRDLVAAGYALYGSATMLVLAMDCGVNCFMLDPSIGEFIMVDRDVKMKKKGNIYSLNEGYAKDFDPAINEYLQRKKFPPDGSAPYGARYVGSMVADIHRTLVYGGIFLYPANKKSPSGKLRLLYECNPIAYVMEKAGGLATTGDKDILDIVPTEIHQKAPVVMGSSEDVQEFLEIYRKHKAK
- binding [5]: binds

B3: HA/mFbp1^E98A (enzyme, UniProt Q9QXD6 1-338)
chain: MANHAPFETDISTLTRFVMEQGRKAQGTGELTQLLNSLCTAIKAISSAVRQAGIAQLYGIAGSTNVTGDQVKKLDILSNDLVINMLKSSYATCVLVSAENTNAIIIEPEKRGKYVVCFDPLDGSSNIDCLVSIGTIFGIYRKKSTDEPSEKDALQPGRDLVAAGYALYGSATMLVLAMDCGVNCFMLDPSIGEFIMVDRDVKMKKKGNIYSLNEGYAKDFDPAINEYLQRKKFPPDGSAPYGARYVGSMVADIHRTLVYGGIFLYPANKKSPSGKLRLLYECNPIAYVMEKAGGLATTGDKDILDIVPTEIHQKAPVVMGSSEDVQEFLEIYRKHKAK
- binding [5]: binds

B4: ALDOB (Huh7 cells) (enzyme, UniProt P05062 1-364)
chain: MAHRFPALTQEQKKELSEIAQSIVANGKGILAADESVGTMGNRLQRIKVENTEENRRQFREILFSVDSSINQSIGGVILFHETLYQKDSQGKLFRNILKEKGIVVGIKLDQGGAPLAGTNKETTIQGLDGLSERCAQYKKDGVDFGKWRAVLRIADQCPSSLAIQENANALARYASICQQNGLVPIVEPEVIPDGDHDLEHCQYVTEKVLAAVYKALNDHHVYLEGTLLKPNMVTAGHACTKKYTPEQVAMATVTALHRTVPAAVPGICFLSGGMSEEDATLNLNAINLCPLPKPWKLSFSYGRALQASALAAWGGKAANKEATQEAFMKRAMANCQAAKGQYVHTGSSGAASTQSLFTACYTY
- binding [6]: binds

B5: His-ALDOB (enzyme, UniProt P05062 1-364)
chain: MAHRFPALTQEQKKELSEIAQSIVANGKGILAADESVGTMGNRLQRIKVENTEENRRQFREILFSVDSSINQSIGGVILFHETLYQKDSQGKLFRNILKEKGIVVGIKLDQGGAPLAGTNKETTIQGLDGLSERCAQYKKDGVDFGKWRAVLRIADQCPSSLAIQENANALARYASICQQNGLVPIVEPEVIPDGDHDLEHCQYVTEKVLAAVYKALNDHHVYLEGTLLKPNMVTAGHACTKKYTPEQVAMATVTALHRTVPAAVPGICFLSGGMSEEDATLNLNAINLCPLPKPWKLSFSYGRALQASALAAWGGKAANKEATQEAFMKRAMANCQAAKGQYVHTGSSGAASTQSLFTACYTY
- binding (GST-PP2A-C): binds

B6: ALDOB (mouse liver) (enzyme, UniProt Q91Y97 1-364)
chain: MAHRFPALTPEQKKELSEIAQRIVANGKGILAADESVGTMGNRLQRIKVENTEENRRQFRELLFSVDNSISQSIGGVILFHETLYQKDSQGNLFRNVLKEKGIVVGIKLDQGGAPLAGTNKETTIQGLDGLSERCAQYKKDGVDFGKWRAVLRIADQCPSSLAIQENANALARYASICQQNGLVPIVEPEVLPDGDHDLEHCQYVSEKVLAAVYKALNDHHVYLEGTLLKPNMVTAGHACTKKYTPEQVAMATVTALHRTVPAAVPGICFLSGGMSEEDATLNLNAINRCPLPRPWKLSFSYGRALQASALAAWGGKAANKKATQEAFMKRAMANCQAAQGQYVHTGSSGAAATQSLFTASYTY
- binding [1]: binds
- binding [4]: binds
- binding [5]: binds
